Measurements reported in PubChem BioAssay (EPA / NIEHS).
Several values for one entry are separate records, joined by “and”; a condition that tells them apart may be missing. Equal entries are not always repeated. This list was built around the results that the source calls inconclusive (neither active nor inactive); the mix of calls is not that of the screen. For some of these results: Potencies beside an inconclusive call are fits to weak or partial responses and may not hold up. Activity calls are given as the source filed them. How the source made its calls: active means hit-call score of the fitted dose curve at least 0.9, where 1 is the maximum; inconclusive means response in the unintended direction; inactive means score below 0.9.

The chains behind the UniProt entries cited, without tags or fusion partners. Where a name states a change or a piece, a line headed by the entry shows the natural chain unless it says otherwise.
UniProt P04150: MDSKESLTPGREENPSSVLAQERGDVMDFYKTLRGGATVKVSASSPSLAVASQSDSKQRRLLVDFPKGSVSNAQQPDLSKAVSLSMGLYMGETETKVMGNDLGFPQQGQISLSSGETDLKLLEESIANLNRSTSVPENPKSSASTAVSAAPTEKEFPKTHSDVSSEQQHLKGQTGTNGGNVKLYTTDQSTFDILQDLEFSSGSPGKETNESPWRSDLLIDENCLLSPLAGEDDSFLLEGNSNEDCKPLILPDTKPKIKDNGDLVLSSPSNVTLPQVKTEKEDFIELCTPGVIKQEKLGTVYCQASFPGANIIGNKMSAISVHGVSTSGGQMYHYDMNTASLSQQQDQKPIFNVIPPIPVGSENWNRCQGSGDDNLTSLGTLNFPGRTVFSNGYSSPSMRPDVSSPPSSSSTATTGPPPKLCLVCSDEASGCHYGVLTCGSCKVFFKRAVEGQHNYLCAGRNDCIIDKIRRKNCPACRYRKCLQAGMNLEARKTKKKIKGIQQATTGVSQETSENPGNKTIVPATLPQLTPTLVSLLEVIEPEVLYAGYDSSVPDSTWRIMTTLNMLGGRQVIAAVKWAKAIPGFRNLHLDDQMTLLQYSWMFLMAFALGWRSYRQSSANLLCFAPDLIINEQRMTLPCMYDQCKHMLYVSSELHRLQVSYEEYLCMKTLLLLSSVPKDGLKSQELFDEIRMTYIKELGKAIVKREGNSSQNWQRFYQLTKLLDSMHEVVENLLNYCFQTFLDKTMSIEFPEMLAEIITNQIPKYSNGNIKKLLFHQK
UniProt P11473: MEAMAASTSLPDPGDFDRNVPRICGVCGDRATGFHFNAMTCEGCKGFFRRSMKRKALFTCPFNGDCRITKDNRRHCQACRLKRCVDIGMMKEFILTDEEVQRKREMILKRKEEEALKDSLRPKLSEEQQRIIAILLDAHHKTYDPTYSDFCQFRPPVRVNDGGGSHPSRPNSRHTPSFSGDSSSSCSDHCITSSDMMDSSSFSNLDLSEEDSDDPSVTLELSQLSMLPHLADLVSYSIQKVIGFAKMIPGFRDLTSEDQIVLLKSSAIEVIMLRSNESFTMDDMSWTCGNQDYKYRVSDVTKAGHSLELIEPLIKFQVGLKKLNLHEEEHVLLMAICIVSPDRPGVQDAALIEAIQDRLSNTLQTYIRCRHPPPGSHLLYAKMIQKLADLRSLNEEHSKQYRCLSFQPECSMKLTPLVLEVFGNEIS
UniProt Q96RI1: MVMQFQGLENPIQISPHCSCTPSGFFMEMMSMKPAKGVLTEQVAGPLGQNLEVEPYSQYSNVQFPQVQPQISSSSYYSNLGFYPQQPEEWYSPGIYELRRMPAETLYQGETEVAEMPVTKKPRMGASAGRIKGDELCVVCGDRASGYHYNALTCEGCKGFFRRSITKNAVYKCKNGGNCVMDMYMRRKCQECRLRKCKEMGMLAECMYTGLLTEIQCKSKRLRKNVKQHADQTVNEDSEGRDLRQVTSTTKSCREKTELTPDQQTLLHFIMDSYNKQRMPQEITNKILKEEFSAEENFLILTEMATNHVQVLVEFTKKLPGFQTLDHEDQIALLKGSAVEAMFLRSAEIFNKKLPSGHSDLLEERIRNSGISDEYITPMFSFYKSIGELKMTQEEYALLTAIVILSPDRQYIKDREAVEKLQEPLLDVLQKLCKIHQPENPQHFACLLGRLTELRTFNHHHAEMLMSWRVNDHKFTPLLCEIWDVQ
UniProt O75469: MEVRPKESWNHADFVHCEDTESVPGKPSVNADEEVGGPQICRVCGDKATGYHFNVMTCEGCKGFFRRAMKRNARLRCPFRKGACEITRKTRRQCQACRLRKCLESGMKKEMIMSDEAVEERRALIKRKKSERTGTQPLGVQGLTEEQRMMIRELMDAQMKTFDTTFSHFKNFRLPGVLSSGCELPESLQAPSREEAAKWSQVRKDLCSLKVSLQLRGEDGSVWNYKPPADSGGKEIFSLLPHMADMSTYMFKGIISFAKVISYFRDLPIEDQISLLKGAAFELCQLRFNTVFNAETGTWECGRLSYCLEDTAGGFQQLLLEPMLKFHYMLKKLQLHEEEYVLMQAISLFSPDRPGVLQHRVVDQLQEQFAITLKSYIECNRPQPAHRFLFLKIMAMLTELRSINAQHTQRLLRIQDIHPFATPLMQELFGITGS
UniProt P04637, whole entry, looked up: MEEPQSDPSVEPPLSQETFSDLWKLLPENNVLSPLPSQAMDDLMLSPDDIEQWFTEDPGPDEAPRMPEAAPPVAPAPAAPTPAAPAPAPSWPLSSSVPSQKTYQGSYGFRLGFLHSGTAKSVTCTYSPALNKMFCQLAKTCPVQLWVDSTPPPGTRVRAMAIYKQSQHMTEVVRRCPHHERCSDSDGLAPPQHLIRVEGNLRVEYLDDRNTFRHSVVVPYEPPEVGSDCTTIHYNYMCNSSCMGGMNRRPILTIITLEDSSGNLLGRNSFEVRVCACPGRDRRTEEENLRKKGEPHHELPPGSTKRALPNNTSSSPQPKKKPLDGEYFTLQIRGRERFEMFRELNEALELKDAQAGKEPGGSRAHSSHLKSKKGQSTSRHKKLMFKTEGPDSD
UniProt Q03181: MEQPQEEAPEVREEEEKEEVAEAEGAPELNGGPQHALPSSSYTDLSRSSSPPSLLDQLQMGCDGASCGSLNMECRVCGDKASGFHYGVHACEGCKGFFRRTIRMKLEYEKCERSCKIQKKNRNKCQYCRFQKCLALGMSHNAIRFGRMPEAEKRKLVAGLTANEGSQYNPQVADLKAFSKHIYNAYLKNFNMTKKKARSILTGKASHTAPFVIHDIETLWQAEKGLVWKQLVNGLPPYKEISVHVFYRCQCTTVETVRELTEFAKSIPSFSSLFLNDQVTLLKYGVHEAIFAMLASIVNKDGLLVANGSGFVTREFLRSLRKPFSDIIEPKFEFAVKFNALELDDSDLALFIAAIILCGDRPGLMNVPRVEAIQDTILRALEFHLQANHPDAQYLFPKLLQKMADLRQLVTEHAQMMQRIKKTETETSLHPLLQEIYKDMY
UniProt P37231: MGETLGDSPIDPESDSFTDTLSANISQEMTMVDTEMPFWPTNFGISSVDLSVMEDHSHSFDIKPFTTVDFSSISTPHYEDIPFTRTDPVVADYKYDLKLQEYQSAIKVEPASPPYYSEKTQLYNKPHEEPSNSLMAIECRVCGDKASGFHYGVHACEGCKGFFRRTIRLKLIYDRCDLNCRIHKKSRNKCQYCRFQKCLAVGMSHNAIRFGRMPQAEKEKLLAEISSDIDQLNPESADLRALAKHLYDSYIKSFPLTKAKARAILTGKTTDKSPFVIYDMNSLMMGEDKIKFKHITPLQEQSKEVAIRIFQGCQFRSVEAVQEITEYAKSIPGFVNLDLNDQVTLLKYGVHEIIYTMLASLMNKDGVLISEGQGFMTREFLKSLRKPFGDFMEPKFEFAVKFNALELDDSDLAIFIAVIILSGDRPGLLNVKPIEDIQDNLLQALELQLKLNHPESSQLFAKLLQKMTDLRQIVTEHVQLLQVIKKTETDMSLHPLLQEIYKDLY
UniProt P19793: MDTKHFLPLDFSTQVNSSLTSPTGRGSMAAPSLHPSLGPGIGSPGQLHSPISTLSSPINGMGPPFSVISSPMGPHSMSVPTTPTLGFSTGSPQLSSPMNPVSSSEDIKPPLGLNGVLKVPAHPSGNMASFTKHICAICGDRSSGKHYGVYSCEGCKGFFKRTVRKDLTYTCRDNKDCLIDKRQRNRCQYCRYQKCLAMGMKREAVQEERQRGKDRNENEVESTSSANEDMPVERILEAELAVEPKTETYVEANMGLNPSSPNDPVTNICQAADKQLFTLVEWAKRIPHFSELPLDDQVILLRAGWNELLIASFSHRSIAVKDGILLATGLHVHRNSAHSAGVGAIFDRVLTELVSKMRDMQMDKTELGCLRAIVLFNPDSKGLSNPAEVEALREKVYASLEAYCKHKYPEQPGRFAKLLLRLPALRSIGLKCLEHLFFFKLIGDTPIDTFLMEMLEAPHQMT

Key:
[1] = biological target: Glucocorticoid receptor (Homo sapiens) (UniProt P04150); assay: ATG_GR_TRANS: Attagene TRANS-FACTORIAL HepG2 Assay for human Glucocorticoid Receptor (GR) (AID 2282978); conditions: HepG2 Attagene TRANS GR reporter, mRNA transcription;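 further: activators score as hits since higher reporter transcript over DMSO is fitted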
How it was run: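 Measurement of GAL4-UAS-driven reporter mRNA in human HepG2 liver cells 24 h post-dosing, using RT-PCR with fluorescent labelling and capillary electrophoresis; the transfected constructs report exogenous NR-GAL4 chimera activity, fitted upward against DMSO.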

[2] = biological target: human Vitamin D Receptor (VDR), VDR (gene 7421) (UniProt P11473); assay: ATG_VDR_TRANS: Attagene TRANS-FACTORIAL HepG2 Assay for human Vitamin D Receptor (VDR) (AID 2283022)
How it was run: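 HepG2 cells were transiently transfected with GAL4-UAS reporter units and a chimeric VDR-Gal4 construct, then dosed for 24 hours. Reporter mRNA was quantified by RT-PCR, fluorescent labeling, HpaI digestion and capillary electrophoresis; gain of signal analysed vs DMSO.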

[3] = ATG_XTT_Cytotoxicity: Cytotoxicity Assessment in the Attagene TRANS-FACTORIAL HepG2 Assay (AID 2283584);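 on AC50: XTT signal for cell number as viability in transfected HepG2 cells; cells exposed to compound for 24 h before reading; active means loss of viability signal versus DMSO baseline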
How it was run: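 HepG2 cells transiently transfected with GAL4-UAS multiple reporter units, dosed 24 h; cytotoxicity read by XTT as loss of signal versus DMSO baseline.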

[4] = ACEA_ER_AUC_viability: ACEA Biosciences xCELLigence Real-Time Cell Analysis on Estrogen Receptor Agonism for Viability (AID 2283782);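 further: continuous compound exposure with impedance area under curve over 80 h; hit means loss of impedance signal meaning reduced cell growth or viability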
How it was run: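 T-47D human breast cells in phenol red-free RPMI1640 with 10% charcoal-stripped FBS were dosed with an 8-point 1:4 dilution series from 100 uM top final concentration, in duplicate. Impedance-based growth was followed for 80 h; AUC analysed versus DMSO.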

[5] = biological target: Bile acid receptor (Homo sapiens) (UniProt Q96RI1); assay: ATG_FXR_TRANS: Attagene TRANS-FACTORIAL HepG2 Assay for Farnesoid X Receptor (FXR) (AID 2282979); conditions: HepG2 Attagene TRANS FXR-GAL4 reporter transcription;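 further: hits raise reporter mRNA above DMSO so AC50 marks FXR activation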
How it was run: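 HepG2 cells were transiently transfected with GAL4-UAS reporters driven by chimeric NR-Gal4 proteins and dosed for 24 h. Reporter mRNA was quantified by RT-PCR, fluorescent labelling, HpaI digestion and capillary electrophoresis, with gain of signal scored versus DMSO.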

[6] = biological target: Nuclear receptor subfamily 1 group I member 2 (Homo sapiens) (UniProt O75469); assay: ATG_PXR_TRANS: Attagene TRANS-FACTORIAL HepG2 Assay for human Pregnane X Receptor (PXR) (AID 2283008)
How it was run: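 HepG2 cells transiently transfected with GAL4-UAS reporter units and PXR-Gal4 chimera, exposed 24 h. Reporter mRNA quantified by RT-PCR, fluorescent labelling, HpaI digestion and capillary electrophoresis; gain of signal vs DMSO.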

[7] = biological target: Cellular tumor antigen p53 (Homo sapiens) (UniProt P04637); assay: TOX21_p53_BLA_p2_ratio: Tox21 HCT-116 p53 Agonism Beta-lactamase Assay, Ratio, Phase 2 (AID 2283592)
How it was run: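 HCT-116 cells with p53-responsive beta-lactamase reporter, 4000 cells/well, preincubated 5 h, then compound in DMSO (217-fold dilution) for 16 h at 37C. CCF4-AM substrate 2 h at room temperature; 460/530 nm emission ratio fitted upward versus DMSO.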

[8] = biological target: Cellular tumor antigen p53 (Homo sapiens) (UniProt P04637); assay: TOX21_p53_BLA_p3_ratio: Tox21 HCT-116 p53 Agonism Beta-lactamase Assay, Ratio, Phase 3 (AID 2283596)
How it was run: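 HCT116 p53-bla cells (4000/well) given compound in DMSO (217-fold dilution) after 5 h, incubated 16 h at 37C. CCF4-AM substrate 2 h at room temperature; 460/530 nm emission ratio, gain fitted against DMSO.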

[9] = TOX21_p53_BLA_p4_viability: Viability Assessment in the Tox21 HCT-116 p53 Agonism Beta-lactamase Assay, Phase 4 (AID 2283597);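 further: hits lower the luminescence signal meaning cytotoxicity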
How it was run: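 HCT-116 p53-bla cells, 4000/well, dosed after 5 h attachment and incubated 16 h at 37 °C, 5% CO2. Viability from CellTiter-Glo ATP luminescence after 30 min at room temperature, taken after the beta-lactamase read; loss of signal indicates cytotoxicity.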

[10] = TOX21_p53_BLA_p5_viability: Viability Assessment in the Tox21 HCT-116 p53 Agonism Beta-lactamase Assay, Phase 5 (AID 2283600)
How it was run: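 HCT-116 p53 beta-lactamase reporter cells, 4000/well, were exposed to compound (pin transfer, 217-fold dilution) for 16 hours at 37C. Cellular ATP was read by CellTiter-Glo luminescence after 30 min at room temperature.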

[11] = biological target: Cellular tumor antigen p53 (Homo sapiens) (UniProt P04637); assay: TOX21_p53_BLA_p4_ratio: Tox21 HCT-116 p53 Agonism Beta-lactamase Assay, Ratio, Phase 4 (AID 2283601)
How it was run: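 HCT116 cells carrying an inducible beta-lactamase reporter were plated at 4000 cells/well, rested 5 h, then exposed to compounds in DMSO (217-fold dilution) for 16 h at 37C. CCF4-AM substrate was loaded 2 h at room temperature; 460/530 nm emission ratio scored gain-of-signal versus DMSO.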

[12] = CCTE_Harrill_HTTr_CellCount_MCF7: CCTE's Cell Proliferation Assessment for the High-Throughput Transcriptomics (HTTr) Platform, Harrill Lab (AID 2284012);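 further: intended direction is loss of nuclei count meaning fewer cells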
How it was run: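 MCF-7 cells were exposed for 6 h to an eight-point dilution series; Hoechst-labeled nuclei were counted by high content imaging. Curves were fitted bidirectionally against DMSO as negative control and baseline, with signal loss indicating reduced cell count.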

[13] = biological target: human Peroxisome Proliferator-activated Receptor delta (PPARd), PPARD (gene 5467) (UniProt Q03181); assay: ATG_PPARd_TRANS: Attagene TRANS-FACTORIAL HepG2 Assay for human Peroxisome Proliferator-activated Receptor delta (PPARd) (AID 2283002)
How it was run: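 Measured quantity: GAL4-UAS reporter transcript induction in HepG2 after 24 h chemical dosing, with NR-Gal4 chimeras supplied by transient transfection. Detection by RT-PCR and capillary electrophoresis; upward fit against DMSO.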

[14] = biological target: Peroxisome proliferator-activated receptor gamma (Homo sapiens) (UniProt P37231); assay: ATG_PPARg_TRANS: Attagene TRANS-FACTORIAL HepG2 Assay for human Peroxisome Proliferator-activated Receptor-gamma (PPARg) (AID 2283007)
How it was run: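 Multiplexed reporter transcription units in HepG2, 24 h dosing, reporter transcripts quantified by fluorescent RT-PCR and capillary electrophoresis. Increase over DMSO scored.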

[15] = biological target: Retinoic acid receptor RXR-alpha (Homo sapiens) (UniProt P19793); assay: OT_NURR1_NURR1RXRa_1440: Odyssey Thera (OT) 24-hour HEK293T Protein Complementation Assay for Nurr1/retinoid X receptor (RXR) (AID 2283386)
How it was run: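 HEK293T cells were dosed with compound and read 24 h later by fluorescence intensity in a protein-fragment complementation format, where Nurr1–RXRα interaction reconstitutes a split reporter. Activity was fitted as gain of signal relative to DMSO baseline.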

[16] = biological target: Cellular tumor antigen p53 (Homo sapiens) (UniProt P04637); assay: TOX21_p53_BLA_p5_ratio: Tox21 HCT-116 p53 Agonism Beta-lactamase Assay, Ratio, Phase 5 (AID 2283599)
How it was run: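 HCT-116 cells carrying a p53-inducible beta-lactamase reporter were seeded at 4000 cells/well and dosed after 5 h with compound in DMSO (217-fold dilution). After 16 h at 37C, CCF4-AM substrate was added for 2 h, and the 460/530 nm emission ratio was scored as gain-of-signal versus DMSO.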

[17] = ATG_M_06_TRANS: Attagene TRANS-FACTORIAL HepG2 Assay for M06 Transcription Factor (Internal Marker) (AID 2282983); conditions: HepG2 Attagene TRANS M06 internal marker reporter;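 on AC50: potency for rise in reporter mRNA above DMSO baseline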
How it was run: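 HepG2 cells transiently transfected with GAL4-UAS multiple reporter units, dosed 24 h. Reporter RNA reverse-transcribed, PCR-amplified, 6-FAM-labeled, HpaI-digested and quantified by capillary electrophoresis; this internal-marker signal fitted upward relative to DMSO.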

[18] = biological target: Retinoic acid receptor RXR-alpha (Homo sapiens) (UniProt P19793); assay: OT_NURR1_NURR1RXRa_0480: Odyssey Thera (OT) 8-hour HEK293T Protein Complementation Assay for Nurr1/retinoid X receptor (RXR) (AID 2283385)
How it was run: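 HEK293T cells expressing Nurr1 and RXRα fused to reporter fragments were dosed with compound for 8 hours. Complex formation was read as fluorescence intensity and analysed as gain of signal against DMSO as baseline.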

[19] = ACEA_AR_agonist_AUC_viability: ACEA Biosciences xCELLigence Real-Time Cell Analysis on Androgen Receptor Agonism for Viability (AID 2283775)
How it was run: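 Read-out is area under the impedance curve at 80 h post-dose in 22Rv1 cells, with DMSO as baseline and signal loss taken as reduced viability. Compounds ran in duplicate from 100 uM final.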

Measured: AC50

COc1ccc(OC)c(N=Nc2c(O)ccc3ccccc23)c1
inactive: [3]
inconclusive: [1] 100 µM | [2] 100 µM | [4] 0.591 µM

CCCCCCCCCCCCCCCO
inactive: [5] | [2]
inconclusive: [6] 100 µM | [7] 46.4 µM | [8] 46.4 µM | [9] 46.1 µM and 46.4 µM | [10] 46.1 µM and 46.4 µM | [11] 85 µM and 46.4 µM | [12] 50 µM

C1=CCCC=CCCC=CCC1
inconclusive: [13] 0.00914 µM | [14] 100 µM | [2] 0.00914 µM | [7] 46.1 µM | [10] 46.1 µM
inactive: [1] | [15] | [8] | [16]

CN(C)C(=S)SC(=S)N(C)C
inactive: [6]
inconclusive: [1] 5.44 µM | [17] 47.8 µM | [3] 100 µM | [8] 47.1 µM | [9] 47.1 µM and 23 µM | [16] 14.2 µM | [10] 46.1 µM and 7.34 nM and 23 µM
active: [4] 90.3 µM

NC=O
inconclusive: [5] 100 µM | [14] 27.4 µM | [18] 0.219 µM | [15] 9.92 µM

O=C1CCCCCN1SSN1CCCCCC1=O
active: [7] 86.6 µM
inactive: [2] | [8] | [10] | [11]
inconclusive: [13] 100 µM | [6] 24.5 µM | [16] 9.15 µM

BrCc1cccc(Oc2ccccc2)c1
inconclusive: [17] 100 µM
inactive: [1] | [19] | [4]
